This note sets out measurements from the supplement of paper PMC12067093, “Discovery and optimisation of a covalent ligand for TRIM25 and its application to targeted protein ubiquitination” (Chemical Science, 2025).

By UniProt entry, the sequences of proteins in these tests, tags left out. Where a name states a change or a piece, a line headed by the entry shows the natural chain unless it says otherwise.
UniProt Q92546: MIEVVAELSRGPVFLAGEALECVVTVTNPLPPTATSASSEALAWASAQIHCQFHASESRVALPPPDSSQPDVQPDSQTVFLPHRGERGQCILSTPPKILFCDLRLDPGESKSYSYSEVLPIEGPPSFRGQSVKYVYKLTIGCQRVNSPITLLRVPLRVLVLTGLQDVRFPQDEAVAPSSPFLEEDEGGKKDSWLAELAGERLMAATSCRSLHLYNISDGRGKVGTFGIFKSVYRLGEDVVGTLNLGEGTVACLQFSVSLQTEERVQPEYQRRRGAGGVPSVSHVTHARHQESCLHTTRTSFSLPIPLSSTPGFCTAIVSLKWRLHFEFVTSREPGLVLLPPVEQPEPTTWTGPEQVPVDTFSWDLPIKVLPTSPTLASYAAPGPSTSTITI
UniProt Q04206, whole entry, looked up: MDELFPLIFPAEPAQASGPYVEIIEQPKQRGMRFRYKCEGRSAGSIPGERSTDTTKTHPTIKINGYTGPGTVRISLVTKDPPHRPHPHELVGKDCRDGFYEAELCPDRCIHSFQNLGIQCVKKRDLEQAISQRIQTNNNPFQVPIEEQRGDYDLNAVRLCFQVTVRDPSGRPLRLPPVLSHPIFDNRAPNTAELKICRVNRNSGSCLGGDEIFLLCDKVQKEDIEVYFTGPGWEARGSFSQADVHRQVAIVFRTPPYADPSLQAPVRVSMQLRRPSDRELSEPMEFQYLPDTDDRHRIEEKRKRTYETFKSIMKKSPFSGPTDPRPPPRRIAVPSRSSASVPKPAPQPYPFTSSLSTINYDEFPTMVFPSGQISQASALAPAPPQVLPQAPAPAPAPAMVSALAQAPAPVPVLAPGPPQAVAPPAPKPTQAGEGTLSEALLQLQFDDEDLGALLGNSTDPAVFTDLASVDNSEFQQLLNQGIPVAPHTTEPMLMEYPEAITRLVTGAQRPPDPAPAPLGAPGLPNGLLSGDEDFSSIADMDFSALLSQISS
UniProt O43567: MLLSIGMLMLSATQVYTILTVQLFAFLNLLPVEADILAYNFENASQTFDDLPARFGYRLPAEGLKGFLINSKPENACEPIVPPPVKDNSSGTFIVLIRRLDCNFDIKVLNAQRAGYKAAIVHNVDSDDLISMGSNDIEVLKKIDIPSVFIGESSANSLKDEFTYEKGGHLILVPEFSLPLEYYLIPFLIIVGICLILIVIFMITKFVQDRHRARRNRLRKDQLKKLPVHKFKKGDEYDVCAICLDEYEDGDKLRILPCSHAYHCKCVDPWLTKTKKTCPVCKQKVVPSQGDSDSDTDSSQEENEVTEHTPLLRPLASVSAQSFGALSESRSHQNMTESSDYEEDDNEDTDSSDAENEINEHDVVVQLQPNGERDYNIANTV
UniProt Q9H871: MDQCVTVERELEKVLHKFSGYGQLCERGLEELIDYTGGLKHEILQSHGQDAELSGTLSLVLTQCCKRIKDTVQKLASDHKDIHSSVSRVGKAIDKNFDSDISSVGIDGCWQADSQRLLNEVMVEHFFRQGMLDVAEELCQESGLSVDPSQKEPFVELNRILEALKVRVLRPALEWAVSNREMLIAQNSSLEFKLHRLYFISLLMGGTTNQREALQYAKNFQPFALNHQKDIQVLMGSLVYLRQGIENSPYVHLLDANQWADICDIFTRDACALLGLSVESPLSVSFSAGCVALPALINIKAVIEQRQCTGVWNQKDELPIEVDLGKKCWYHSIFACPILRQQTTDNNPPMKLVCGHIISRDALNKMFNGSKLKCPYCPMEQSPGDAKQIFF
UniProt P51606: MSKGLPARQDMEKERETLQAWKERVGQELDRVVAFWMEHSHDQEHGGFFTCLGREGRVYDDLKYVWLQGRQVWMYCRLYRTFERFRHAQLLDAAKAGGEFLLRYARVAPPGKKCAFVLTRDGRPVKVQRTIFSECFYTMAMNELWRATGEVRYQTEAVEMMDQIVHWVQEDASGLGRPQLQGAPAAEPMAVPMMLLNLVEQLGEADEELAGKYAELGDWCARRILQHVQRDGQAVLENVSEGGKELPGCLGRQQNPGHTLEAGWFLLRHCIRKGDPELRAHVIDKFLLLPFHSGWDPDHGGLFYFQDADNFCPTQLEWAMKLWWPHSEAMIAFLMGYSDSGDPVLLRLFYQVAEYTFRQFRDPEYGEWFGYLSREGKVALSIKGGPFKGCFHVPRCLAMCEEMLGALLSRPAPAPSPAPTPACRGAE
UniProt O43665: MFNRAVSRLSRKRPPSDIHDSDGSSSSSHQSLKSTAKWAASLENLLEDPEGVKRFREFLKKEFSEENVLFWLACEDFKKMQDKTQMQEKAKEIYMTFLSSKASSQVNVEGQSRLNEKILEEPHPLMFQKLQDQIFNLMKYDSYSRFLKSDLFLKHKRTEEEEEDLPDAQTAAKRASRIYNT
UniProt Q9NWS8: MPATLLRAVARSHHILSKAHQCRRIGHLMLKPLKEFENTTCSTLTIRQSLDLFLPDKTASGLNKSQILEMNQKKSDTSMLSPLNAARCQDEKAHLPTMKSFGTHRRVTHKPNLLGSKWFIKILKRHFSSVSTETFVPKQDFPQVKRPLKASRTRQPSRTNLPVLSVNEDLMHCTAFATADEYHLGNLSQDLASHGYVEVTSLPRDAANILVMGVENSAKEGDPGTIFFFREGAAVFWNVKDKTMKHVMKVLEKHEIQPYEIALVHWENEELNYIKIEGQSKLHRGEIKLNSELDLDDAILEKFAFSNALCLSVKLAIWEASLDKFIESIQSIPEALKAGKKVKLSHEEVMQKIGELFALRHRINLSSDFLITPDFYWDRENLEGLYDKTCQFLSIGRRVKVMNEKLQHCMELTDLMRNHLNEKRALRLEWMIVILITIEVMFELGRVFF
UniProt Q9H9A7: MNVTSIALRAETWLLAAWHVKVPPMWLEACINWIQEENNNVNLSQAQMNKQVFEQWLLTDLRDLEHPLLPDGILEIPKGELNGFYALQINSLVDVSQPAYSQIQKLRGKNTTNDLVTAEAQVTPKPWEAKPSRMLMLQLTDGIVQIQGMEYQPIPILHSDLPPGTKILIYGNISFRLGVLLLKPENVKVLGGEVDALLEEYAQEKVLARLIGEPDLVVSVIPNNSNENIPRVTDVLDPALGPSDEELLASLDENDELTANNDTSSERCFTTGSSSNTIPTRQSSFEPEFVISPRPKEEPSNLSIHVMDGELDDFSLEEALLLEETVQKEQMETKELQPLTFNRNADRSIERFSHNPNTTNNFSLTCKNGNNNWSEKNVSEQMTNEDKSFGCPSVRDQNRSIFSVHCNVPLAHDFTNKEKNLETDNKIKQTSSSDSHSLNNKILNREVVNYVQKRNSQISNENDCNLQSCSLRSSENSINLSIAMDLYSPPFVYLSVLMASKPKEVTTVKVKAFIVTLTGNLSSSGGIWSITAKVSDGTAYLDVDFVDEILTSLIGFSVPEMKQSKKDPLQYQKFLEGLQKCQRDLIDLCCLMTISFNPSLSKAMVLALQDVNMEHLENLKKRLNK
UniProt P35250, whole entry, looked up: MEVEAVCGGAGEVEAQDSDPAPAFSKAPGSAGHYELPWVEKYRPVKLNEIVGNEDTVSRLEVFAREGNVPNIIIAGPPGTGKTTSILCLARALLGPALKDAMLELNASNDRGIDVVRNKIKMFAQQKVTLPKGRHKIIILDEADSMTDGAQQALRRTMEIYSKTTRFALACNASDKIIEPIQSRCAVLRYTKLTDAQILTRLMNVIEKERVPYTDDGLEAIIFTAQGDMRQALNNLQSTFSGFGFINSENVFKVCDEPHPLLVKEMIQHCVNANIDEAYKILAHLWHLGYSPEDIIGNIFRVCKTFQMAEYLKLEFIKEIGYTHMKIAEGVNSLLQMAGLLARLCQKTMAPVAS
UniProt Q13129: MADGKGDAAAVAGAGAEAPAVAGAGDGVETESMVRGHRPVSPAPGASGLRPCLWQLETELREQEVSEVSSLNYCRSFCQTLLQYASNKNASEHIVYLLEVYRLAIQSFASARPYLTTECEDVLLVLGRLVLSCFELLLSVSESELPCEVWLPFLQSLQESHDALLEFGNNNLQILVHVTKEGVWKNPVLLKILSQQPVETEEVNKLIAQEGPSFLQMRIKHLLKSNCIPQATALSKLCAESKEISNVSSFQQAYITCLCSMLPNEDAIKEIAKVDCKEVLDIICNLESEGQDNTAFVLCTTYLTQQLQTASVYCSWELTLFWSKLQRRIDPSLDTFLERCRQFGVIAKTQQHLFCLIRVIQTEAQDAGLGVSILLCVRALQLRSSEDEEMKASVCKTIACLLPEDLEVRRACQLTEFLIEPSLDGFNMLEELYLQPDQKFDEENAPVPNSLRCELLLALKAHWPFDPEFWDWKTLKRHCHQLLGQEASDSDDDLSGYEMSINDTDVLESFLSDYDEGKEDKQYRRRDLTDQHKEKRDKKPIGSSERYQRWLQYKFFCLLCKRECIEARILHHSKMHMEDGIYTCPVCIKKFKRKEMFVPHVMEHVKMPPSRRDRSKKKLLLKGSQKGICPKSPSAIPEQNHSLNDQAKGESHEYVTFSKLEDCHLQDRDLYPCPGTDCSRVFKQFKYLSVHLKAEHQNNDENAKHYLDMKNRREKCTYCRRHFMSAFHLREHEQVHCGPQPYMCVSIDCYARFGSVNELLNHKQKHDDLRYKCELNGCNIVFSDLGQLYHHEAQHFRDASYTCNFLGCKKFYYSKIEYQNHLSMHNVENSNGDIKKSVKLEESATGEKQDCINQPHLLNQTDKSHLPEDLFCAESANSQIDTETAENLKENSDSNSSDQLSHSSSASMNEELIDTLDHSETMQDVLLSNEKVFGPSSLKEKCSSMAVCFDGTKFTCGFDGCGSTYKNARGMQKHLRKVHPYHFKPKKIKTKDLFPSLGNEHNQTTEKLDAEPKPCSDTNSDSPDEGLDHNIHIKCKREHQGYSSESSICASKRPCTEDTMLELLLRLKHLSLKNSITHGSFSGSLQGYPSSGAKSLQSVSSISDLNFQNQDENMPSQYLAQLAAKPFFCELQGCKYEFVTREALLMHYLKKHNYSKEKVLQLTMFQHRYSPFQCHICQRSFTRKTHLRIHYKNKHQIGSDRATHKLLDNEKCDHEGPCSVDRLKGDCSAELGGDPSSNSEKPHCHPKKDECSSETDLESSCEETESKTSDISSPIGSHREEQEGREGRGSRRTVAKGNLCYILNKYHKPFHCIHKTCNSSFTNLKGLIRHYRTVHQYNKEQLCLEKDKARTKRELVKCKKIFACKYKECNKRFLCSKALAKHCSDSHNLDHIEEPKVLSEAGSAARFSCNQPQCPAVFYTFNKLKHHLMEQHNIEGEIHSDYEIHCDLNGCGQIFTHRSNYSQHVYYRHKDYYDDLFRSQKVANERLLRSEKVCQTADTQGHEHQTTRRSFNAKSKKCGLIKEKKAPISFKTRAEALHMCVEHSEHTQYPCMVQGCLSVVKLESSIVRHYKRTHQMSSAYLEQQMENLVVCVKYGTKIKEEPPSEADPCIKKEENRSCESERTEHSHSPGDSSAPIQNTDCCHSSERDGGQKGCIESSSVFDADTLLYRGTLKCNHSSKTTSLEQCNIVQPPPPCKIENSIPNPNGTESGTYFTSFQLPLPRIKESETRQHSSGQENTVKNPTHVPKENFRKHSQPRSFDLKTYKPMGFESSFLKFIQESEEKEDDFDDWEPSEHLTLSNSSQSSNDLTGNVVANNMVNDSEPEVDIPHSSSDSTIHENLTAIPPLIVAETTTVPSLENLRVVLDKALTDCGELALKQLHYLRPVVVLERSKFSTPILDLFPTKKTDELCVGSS
UniProt Q04864: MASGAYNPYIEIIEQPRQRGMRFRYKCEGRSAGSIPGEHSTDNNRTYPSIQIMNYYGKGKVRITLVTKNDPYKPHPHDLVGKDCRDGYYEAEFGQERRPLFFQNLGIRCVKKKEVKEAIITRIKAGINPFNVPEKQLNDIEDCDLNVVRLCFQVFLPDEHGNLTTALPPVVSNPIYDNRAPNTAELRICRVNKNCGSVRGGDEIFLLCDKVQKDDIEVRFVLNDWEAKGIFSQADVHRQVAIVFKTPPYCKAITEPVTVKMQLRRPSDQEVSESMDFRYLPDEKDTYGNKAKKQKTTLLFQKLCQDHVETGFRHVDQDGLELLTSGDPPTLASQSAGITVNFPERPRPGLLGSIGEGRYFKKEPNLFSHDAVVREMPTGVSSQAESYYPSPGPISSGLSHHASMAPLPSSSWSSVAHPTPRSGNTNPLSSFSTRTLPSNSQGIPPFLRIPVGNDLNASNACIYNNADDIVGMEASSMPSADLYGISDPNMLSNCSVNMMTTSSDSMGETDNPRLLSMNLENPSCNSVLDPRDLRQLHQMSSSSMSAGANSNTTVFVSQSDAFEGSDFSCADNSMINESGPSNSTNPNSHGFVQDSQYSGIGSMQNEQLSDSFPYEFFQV
UniProt Q969G6: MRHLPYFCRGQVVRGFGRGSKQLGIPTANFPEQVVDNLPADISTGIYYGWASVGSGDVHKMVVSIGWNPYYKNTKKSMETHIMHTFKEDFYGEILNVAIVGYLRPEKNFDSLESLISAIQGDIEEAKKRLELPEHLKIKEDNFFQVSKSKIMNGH

Compound in this experiment: Cc1cc(ccc1-c1ccccc1)C(=O)N1CCCN(CC1)C(=O)CCl [compound 10]
Kind of experiment: probe-labelled cysteine peptide fold change vs DMSO (competition) (log2 fold change); higher = less target engagement (more negative = stronger competition). The conditions noted are these: THP-1, incubation time: 4 h.

This is one part of the list.
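Further: competitive profiling in live THP-1 cells: cysteine peptides tagged with an iodoacetamide desthiobiotin (IA-DTB) probe, intensity after compound treatment relative to DMSO-treated cells.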

“RGP1_Q92546_293_HQESCLHTTR (UniProt Q92546)”: the “probe-labelled cysteine peptide fold change” value by setting is: (10 µM) 0.0253; (50 µM) 0.109.
The matching figures for “RMDN3_Q96TC7_128_CHMEENQR (UniProt Q96TC7)”: -0.178 and -0.221.
As to “RGP1_Q92546_90_GQCILSTPPK (UniProt Q92546)”, the “probe-labelled cysteine peptide fold change” value is -0.094 (10 µM) and -0.305 (50 µM).
In the same order, the values of “RELA_Q04206_105_DGFYEAELCPDR (UniProt Q04206)” are -0.314 and -0.323.
The matching figures for “RIPK1_Q13546_325_MQSLQLDCVAVPSSR (UniProt Q13546)”: -0.165 and -0.687.
Consider “RNF13_O43567_266_CVDPWLTK (UniProt O43567)”, for which the “probe-labelled cysteine peptide fold change” value (10 µM) is -0.284 and the “probe-labelled cysteine peptide fold change” value (50 µM) is -0.314.
The matching figures for “RHOG_P84095_105_WHPEVCHHCPDVPILLVGTK (UniProt P84095)”: 0.143 and 0.0248.
In the same order, the values of “RMND5A_Q9H871_25_FSGYGQLCER (UniProt Q9H871)” are 0.0146 and -0.016.
Turning to “RENBP_P51606_220_YAELGDWCAR (UniProt P51606)”, the “probe-labelled cysteine peptide fold change” value runs as follows: (10 µM) 0.257; (50 µM) -0.0127.
In the same order, the values of “RNF13_O43567_281_KTCPVCK (UniProt O43567)” are -0.0976 and -0.326.
The matching figures for “RMND5A_Q9H871_328+336_CWYHSIFACPILR (UniProt Q9H871)”: -0.0698 and -0.177.
The matching figures for “RGS10_O43665_66_EFSEENVLFWLACEDFK (UniProt O43665)”: 0.332 and 0.101.
On to “RENBP_P51606_114_CAFVLTR (UniProt P51606)”, for which the “probe-labelled cysteine peptide fold change” value (10 µM) came out at 0.165 and the “probe-labelled cysteine peptide fold change” value (50 µM) came to 0.000278.
In the same order, the values of “RFFL_Q8WZ73_123_DLRDYLSLHDISTEMCR (UniProt Q8WZ73)” are -0.0365 and -0.102.
As to “RENBP_P51606_423_PAPAPSPAPTPACR (UniProt P51606)”, the “probe-labelled cysteine peptide fold change” value by setting is: (10 µM) -0.298; (50 µM) -0.249.
The matching figures for “RFC5_P40937_238_VTEETVYTCTGHPLK (UniProt P40937)”: 0.127 and -0.0928.
The matching figures for “RIF1_Q5UIP0_2274_CLISEMAK (UniProt Q5UIP0)”: -0.226 and -0.531.
In the same order, the values of “RMND1_Q9NWS8_409_LQHCMELTDLMR (UniProt Q9NWS8)” are 0.18 and 0.379.
For “RNF169_Q8NCN4_132_DDGQADSEVLGECAR (UniProt Q8NCN4)”, the “probe-labelled cysteine peptide fold change” value is -0.417 (10 µM) and 0.423 (50 µM).
The matching figures for “RGMB_Q6NW40_226_ITIIFKAHHECTDQK (UniProt Q6NW40)”: -0.0752 and -1.11.
For “RELA_Q04206_109_CIHSFQNLGIQCVK (UniProt Q04206)”, the “probe-labelled cysteine peptide fold change” value is -0.151 (10 µM) and -0.0988 (50 µM).
In the same order, the values of “RIPK3_Q9Y572_365_KCPSLTK (UniProt Q9Y572)” are -0.1 and -0.864.
In the same order, the values of “RMI1_Q9H9A7_268_CFTTGSSSNTIPTR (UniProt Q9H9A7)” are -0.352 and -0.438.
In the same order, the values of “RFC2_P35250_88_TTSILCLAR (UniProt P35250)” are -0.0505 and -0.0625.
“RFC3_P40938_230+233_ALLMCEACR (UniProt P40938)”: the “probe-labelled cysteine peptide fold change” value reads like this: (10 µM) -0.0104; (50 µM) -0.288.
Consider “RGS14_O43566_496_QTCDIEGLVELLNR (UniProt O43566)”, for which the “probe-labelled cysteine peptide fold change” value was -0.339 (10 µM) and -0.994 (50 µM).
In the same order, the values of “RICTOR_Q6R327_893+906_TGCHLLEVQNIITELCR (UniProt Q6R327)” are -0.265 and -0.217.
The matching figures for “RNASEH2A_O75792_50+52_GPVLGPMVYAICYCPLPR (UniProt O75792)”: 0.0932 and 0.452.
Take “RLF_Q13129_1317_TCNSSFTNLK (UniProt Q13129)”: the “probe-labelled cysteine peptide fold change” value is, setting by setting: (10 µM) 0.0665; (50 µM) 0.133.
As for “RMND5A_Q9H871_4_MDQCVTVER (UniProt Q9H871)”, the “probe-labelled cysteine peptide fold change” value is -0.205 (10 µM) and 0.373 (50 µM).
In the same order, the values of “REL_Q04864-2_304_LCQDHVNFPERPRPGLLGSIGEGR (UniProt Q04864)” are -0.131 and -0.283.
Consider “RLF_Q13129_1642_TEHSHSPGDSSAPIQNTDCCHSSER (UniProt Q13129)”, for which the “probe-labelled cysteine peptide fold change” value is -0.2 (10 µM) and -0.396 (50 µM).
Regarding “RFXANK_O14593_205_CVEALLAR (UniProt O14593)”, the “probe-labelled cysteine peptide fold change” value is 0.0175 (10 µM) and -0.265 (50 µM).
In the same order, the values of RFK_Q969G6_8_HLPYFCR (UniProt Q969G6) are -0.142 and -0.0297.
In the same order, the values of “RMI1_Q9H9A7_366_FSHNPNTTNNFSLTCK (UniProt Q9H9A7)” are -0.165 and -0.45.
The matching figures for “RMND5A_Q9H871_308_QCTGVWNQK (UniProt Q9H871)”: -0.0408 and -0.62.
For the target RLF_Q13129_564_RECIEAR (UniProt Q13129), the “probe-labelled cysteine peptide fold change” value (10 µM) is -0.209 and the “probe-labelled cysteine peptide fold change” value (50 µM) was -0.167.
In the same order, the values of “RMC1_Q96DM3_635_GSPNFTPGEHCEEHVAFFK (UniProt Q96DM3)” are 0.0488 and -0.0985.
The matching figures for “RFX2_P48378_436_LISLCQCDPILR (UniProt P48378)”: -0.124 and -0.0951.
In the same order, the values of “RFC1_P35251_607_TIIGQQGDQSCANK (UniProt P35251)” are -0.288 and -0.227.
